According to PubChem BioAssay AID1259354 (Paczesny and Yang Labs, IUPUI and University of Michigan, 2018):
Values joined by “and” are separate entries in the source; they are usually repeats but may differ in a detail not shown here. Equal entries are not always repeated. In all, about 78,000 compounds went through this assay and about 1,800 (2.3%) were called active. The shares of active, inactive and inconclusive entries below differ from those in the screen. Rule as the data show it: active = inhibition above about 30%; inconclusive = mostly about 10% to 28%; inactive = weaker than that.

Amino acid sequences for entries named in this document (tags omitted). A change or cut given only in a name is not applied to a line headed by its entry.
UniProt Q01638: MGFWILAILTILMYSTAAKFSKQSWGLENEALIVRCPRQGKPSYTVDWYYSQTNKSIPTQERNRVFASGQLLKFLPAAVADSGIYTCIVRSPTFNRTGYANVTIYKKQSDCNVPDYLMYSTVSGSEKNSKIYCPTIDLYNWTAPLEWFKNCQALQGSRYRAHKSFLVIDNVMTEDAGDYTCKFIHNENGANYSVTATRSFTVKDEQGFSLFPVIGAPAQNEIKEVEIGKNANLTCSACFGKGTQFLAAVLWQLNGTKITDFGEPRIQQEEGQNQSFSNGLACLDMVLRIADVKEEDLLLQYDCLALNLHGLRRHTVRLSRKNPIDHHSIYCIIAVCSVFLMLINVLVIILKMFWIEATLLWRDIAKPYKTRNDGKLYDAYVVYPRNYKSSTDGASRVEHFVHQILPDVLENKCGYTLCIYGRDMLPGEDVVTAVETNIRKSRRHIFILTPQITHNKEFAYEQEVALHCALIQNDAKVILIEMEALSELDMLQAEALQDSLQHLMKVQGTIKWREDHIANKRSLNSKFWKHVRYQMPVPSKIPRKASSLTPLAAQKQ

Molecular target: Interleukin-1 receptor-like 1 (Homo sapiens) (UniProt Q01638)
Assay: blocks human ST2 binding to IL-33, primary screen, biochemical, AlphaLISA (AID 1259354)
Details: AlphaLISA ST2-Fc/biotin-IL-33 interaction, 1 h; at 17 µM, stronger effect = higher value

SMILES | inhibition
CCN(Cc1nc(COC)no1)C(=O)c1cccnc1C | inconclusive: 15%
COc1ccc(C(=O)N[C@H]2C[C@@H](c3nc(-c4cncnc4)no3)N(C)C2)cc1 | inconclusive: 16%
O=C(CSc1nc2c(c(=O)n1-c1ccc(Cl)cc1)SCC2)c1ccccc1 | inactive
c1cc2c(c(-c3ccc(N4CCCCCC4)nn3)c1)CCNC2 | inconclusive: 10%
O=C(O)c1ccc(-c2cccc(-c3ccn[nH]3)c2)o1 | inconclusive: 13%
CC(C)(C)C1=CC(=NS(=O)(=O)c2ccc(F)cc2)C=C(C(C)(C)C)C1=O | inconclusive: 14%
Cc1ccc(NC(=O)CC2SC(=Nc3ccccc3)NC2=O)c(C)c1 (configuration not stated) | inactive
COc1ccc2cc3cc(C(=O)NCc4cccs4)oc3nc2c1 | inconclusive: 16% and inconclusive: 11%
CCCS(=O)(=O)N1CCCC(C(=O)NCCN2CCCCC2C)C1 (configuration not stated) | inconclusive: 13%
CN1CC2(CCN(C(=O)CCC(=O)c3ccc(F)cc3)C2)OC1=O (configuration not stated) | inconclusive: 11%
Cc1ccccc1CSCc1nc(C2CC2)n[nH]1 | inactive
COc1ccc(CCNS(=O)(=O)c2ccc3c(c2)c(=O)n(C)c(=O)n3C)cc1OC | inconclusive: 22%
CC(C(=O)Nc1cccc(C(F)(F)F)c1)N1C(=O)c2ccccc2C1=O (configuration not stated) | inconclusive: 11%
CC1(C)Cc2c(sc(NC(=O)CO/N=C\c3ccccc3Cl)c2C#N)C(C)(C)N1 | inactive
Cc1cccc(N=C2c3ccccc3-c3ncccc32)c1 | active: 41%
NS(=O)(=O)c1ccc(NC(=O)c2cc(-c3cccs3)nc3ccccc23)cc1 | inconclusive: 15%
Cc1cccc(OCC(=O)Nc2cccc(O)c2)c1 | inconclusive: 10%
COc1ccc(N2C(=O)C3C4c5ccccc5C(CO)(c5ccccc54)C3C2=O)c([N+](=O)[O-])c1 (configuration not stated) | inconclusive: 12%
CCC1=C(c2ccc(OC)cc2)S(=O)(=O)N(CC(=O)Nc2cccc(Cl)c2)C1=O | inconclusive: 27%
Cc1ccc(NC(=O)C2CCN(S(=O)(=O)c3c(C)noc3C)CC2)nc1 | inactive
Cc1cc(Nc2ncnc3ccccc23)ccc1Br | inactive
Cc1ccccc1NC(=O)CC(=O)N1C[C@H](OC(C)C)[C@@H](O)C1 | inactive
COc1ccc(OC)c(NC(=O)CSc2cc(=O)n(C)c3cc(Cl)ccc23)c1 | inconclusive: 13%

SMILES | inhibition
CSc1nc2c(sc3ccccc32)c(=O)n1Cc1ccc2c(c1)OCO2 | inconclusive: 10%
COCCCNC(=O)c1cc2c(=O)n3ccccc3nc2n(CCCO)c1=N | inactive
COc1ccc(/C=C(\C#N)c2nc3ccccc3[nH]2)cc1 | inconclusive: 10%
CCNc1ncc(C(=O)NCC2=CCCCC2)cn1 | inconclusive: 14%
O=C(c1ccc(Br)o1)N(Cc1ccccc1)Cc1ccccc1 | inconclusive: 16%
CC(CCc1ccccc1)NS(=O)(=O)c1ccccc1[N+](=O)[O-] (configuration not stated) | inconclusive: 19%
CC(=O)N1CCN([C@H]2[C@@H]3OC[C@@H](O3)[C@@H](NCc3ccco3)[C@@H]2O)CC1 | inconclusive: 12%
CCN(CC)Cc1cc(Cl)c2cccnc2c1O | inconclusive: 24%
CCN(CC)c1ccc(/C=C2\N=C(c3ccc(C)c([N+](=O)[O-])c3)OC2=O)cc1 | inconclusive: 21%
Cc1ccccc1OCC1CN(CN(CC(C)C)CC(C)C)C(=O)O1 (configuration not stated) | inconclusive: 21%
CCc1ccc(N2COc3ccc(OC)cc3C2)cc1 | inconclusive: 22%
CCCNC(=O)C1CCC(Cn2c(=O)c3sccc3n(CC(N)=O)c2=O)CC1 (configuration not stated) | inconclusive: 11%
COc1ccc(C)cc1NC(=O)c1cnc(Nc2ccccc2OC)c2ccccc12 | inactive
Cn1cncc1-c1nnc([C@H]2CCN(Cc3ncc[nH]3)C2)o1 | inconclusive: 12%
CCOc1ccc(OCC)c(-n2cc(-c3ccc(OCC)c(Cl)c3)[nH]c2=O)c1 | inactive
COc1ccc(OCCCC(=O)Nc2ccccc2[N+](=O)[O-])cc1 | inconclusive: 24%
CCOc1ncccc1-c1cccc(C(=O)OC)c1 | inconclusive: 16%
O=C(Cn1nnc([N+](=O)[O-])n1)c1cccs1 | inactive
CC(C)NC(=O)N[C@H]1CCN2C(=O)c3cc(-c4ccccc4F)ccc3NC(=O)[C@@H]2C1 | inconclusive: 17%
Cc1ccc(-c2csc(NC(=O)c3ccc(S(=O)(=O)N4CCc5ccccc54)cc3)n2)o1 | active: 39%
Cc1nc(N2C[C@@H]3C[C@H](C2)[C@@H]2CCCC(=O)N2C3)cc(-n2cccn2)n1 | inactive
CCCC(=O)Nc1nc2ccc(S(C)(=O)=O)cc2s1 | inconclusive: 13%
COc1ccccc1-c1nnc(NC(=O)c2ccc(S(=O)(=O)N(C)C3CCCCC3)cc2)o1 | inactive

SMILES | inhibition
COc1ccc(-c2ccnc(N[C@H]3CO[C@H]4[C@@H]3OC[C@@H]4NS(=O)(=O)c3cccs3)n2)cc1 | inconclusive: 10%
CC1CCCN(C(=O)CSc2nnc(-c3ccc(Cl)s3)o2)C1 (configuration not stated) | inactive
Cc1c(Cl)cccc1Nc1nnc(Cc2ccc(Cl)cc2)c(=O)[nH]1 | inactive
CN(C)CC1(O)CCCN(C(=O)c2ccc3c(c2)OCCO3)CC1 (configuration not stated) | inconclusive: 12%
COc1ccc(O)c(C2Nc3ccccc3NC3=C2C(=O)CC(C)(C)C3)c1 (configuration not stated) | inactive
COc1ccc(C(=O)N2CCc3c(c(C(=O)N4CCOCC4)nn3CCC(C)C)C2)o1 | inconclusive: 19%
CCCN1CCN(CCCNC(=O)c2cc3cc4ccc(OC)cc4nc3o2)CC1 | inactive
O=C(NCC1CCCN(Cc2ccn[nH]2)C1)C1(c2ccc(Cl)cc2)CC1 (configuration not stated) | inactive
Cc1sc2nc3c(C(=O)NC4CCCCCCC4)cccn3c(=O)c2c1C | inconclusive: 22%
CC1CCN(CC(=O)N2CCCc3c2c(=O)oc2ccc(OCc4ccccc4)cc32)CC1 | inconclusive: 15%
O=C(N1CCN(c2cccc(Cl)c2)CC1)C1(S(=O)(=O)c2ccc(Cl)cc2)CC1 | inconclusive: 10%
O=C(CCN1C(=O)C2C3CCC(C3)C2C1=O)Nc1ccc(Br)cc1 (configuration not stated) | inconclusive: 11%
NC(=O)c1cnc2n1CCN(C(=O)c1scc3c1OCCO3)C2 | inactive
COc1ccc(C(=O)n2nc3c(c2-c2ccc(OC)cc2)COC(C)(C)C3)cc1 | inconclusive: 12%
C=CCn1c(SCc2ccc(C(=O)OC)cc2)nc2ccccc2c1=O | inconclusive: 11%
COc1ccc(C2C(C(=O)OC3CCCCC3)=C(C)Nc3nnnn32)cc1OC (configuration not stated) | inactive
CCCCSc1nc2c(c(=O)n1-c1ccc(OCC)cc1)SCC2 | inconclusive: 11%
CCCC(C)C(=O)N(C)c1ccccc1 (configuration not stated) | inconclusive: 11%
COc1ccc2c(c1)CC(NC1CCN(S(C)(=O)=O)CC1)CC2 (configuration not stated) | inconclusive: 11%
O=C(CN1CCCN(S(=O)(=O)c2ccc(F)cc2)CC1)c1ccc2c(c1)OCO2 | inactive
O=C(Nc1ccc(F)cc1)c1cnc(N2CCN(c3ccccn3)CC2)c2ccccc12 | inconclusive: 15%
Cc1cc(CNC(=O)c2cnn(-c3nccc(-c4cc(C)sc4C)n3)c2C)on1 | active: 30%
O=C(CSc1nc2sc3c(c2c(=O)n1-c1ccccc1)CCCC3)NCc1cccs1 | inactive

SMILES | inhibition
CCc1cc(CN(C)Cc2ccc(C(=O)Nc3nccn3C)cc2)on1 | inconclusive: 17%
COc1ccccc1Cc1nc(-c2ccc([N+](=O)[O-])cc2)no1 | active: 30%
CCCOc1ccc(OCCSc2nc(N)cc(=O)[nH]2)cc1 | inconclusive: 10%
CN1CCN(CC(O)COc2ccc(C3CCCCC3)cc2)CC1 (configuration not stated) | inconclusive: 12%
O=[N+]([O-])c1cc(Cl)ccc1N1CCN(c2ccc([N+](=O)[O-])c3cccnc23)CC1 | active: 56%
CC1=CC(C)(C)N(C(=O)CSc2nc(C)cc(C)n2)c2ccccc21 | inactive
Cc1ccc(C)c(S(=O)(=O)Nc2ccc(O)c(Cl)c2)c1 | inconclusive: 28%
Cc1nccn1CCC1CCCCN1C(=O)NC1CCCCC1 (configuration not stated) | inconclusive: 12%
CN(C)CCNC(=O)c1cc(Sc2cccc(Cl)c2)nc2ccccc12 | inactive
Cc1cccc(OCc2nnc(SCC(=O)Nc3cccc(Cl)c3Cl)o2)c1 | inactive
COC(=O)c1cccc(CN2CCCN(c3ccncc3C)CC2)c1 | inconclusive: 10%
Cc1cccc(S(=O)(=O)Nc2ccc([N+](=O)[O-])cc2)c1 | inconclusive: 26%
Cc1nnc(N2C(=O)C(=O)C(=C(O)c3ccc(F)cc3)C2c2ccc(Br)cc2)s1 (configuration not stated) | inconclusive: 16%
CC1Cc2cc(C(=O)NCc3cnn4ccccc34)ccc2O1 (configuration not stated) | inconclusive: 15%
COc1ccccc1C(=O)ON=C1c2ccccc2-c2ccccc21 | inconclusive: 28%
Cc1cccc(NC(c2cccc(F)c2)c2ccc3ccc(C)nc3c2O)n1 (configuration not stated) | inconclusive: 18%
COc1ccc2c(C)c(CC(=O)N[C@@H]3C[C@@H](CO)N(C)C3)c(=O)oc2c1 | inconclusive: 20%
CCN(CC)c1ccc(C2N(C(=O)c3ccccc3)CCN2C(=O)c2ccccc2)cc1 | inconclusive: 13%
CCOC(=O)c1ccc(NC(=O)N2Cc3[nH]cnc3C[C@H]2c2nc(-c3ccc4ccccc4c3)no2)cc1 | inconclusive: 12%
CCCCNC(=O)c1cn(CCOC)c(=O)c2c1c1ccccc1n2C | inactive
C#CCN1C(=O)C(O)(CC(C)=O)c2ccccc21 (configuration not stated) | inconclusive: 12%
Cc1ccc(N2CCCS2(=O)=O)cc1NC(=O)Cc1ccc(Cl)cc1 | inconclusive: 12%
Cc1cc2c(C)nc(N3CCC(N4CCOc5ccccc5C4)CC3)nc2cc1F | inconclusive: 12%

A different layout for part of the listing above:

| SMILES | inhibition |
| --- | --- |
| CC1(C)Cc2c(sc(NC(=O)CO/N=C\c3ccccc3Cl)c2C#N)C(C)(C)N1 | inactive |
| COCCCNC(=O)c1cc2c(=O)n3ccccc3nc2n(CCCO)c1=N | inactive |
| O=C(c1ccc(Br)o1)N(Cc1ccccc1)Cc1ccccc1 | inconclusive: 16% |
| CCc1ccc(N2COc3ccc(OC)cc3C2)cc1 | inconclusive: 22% |
| COc1ccccc1-c1nnc(NC(=O)c2ccc(S(=O)(=O)N(C)C3CCCCC3)cc2)o1 | inactive |
